Assay [1] addresses SGTA (mouse) (UniProt Q8BJU0). Description: co-immunoprecipitation, brain lysate of Smn heterozygous control mice, western blot. In general terms: Immunoblotting shows a protein as a band on a membrane.
Assay [2] has as its target T1, CSPα (mouse) (UniProt P60904).
T1 sequence (looked up): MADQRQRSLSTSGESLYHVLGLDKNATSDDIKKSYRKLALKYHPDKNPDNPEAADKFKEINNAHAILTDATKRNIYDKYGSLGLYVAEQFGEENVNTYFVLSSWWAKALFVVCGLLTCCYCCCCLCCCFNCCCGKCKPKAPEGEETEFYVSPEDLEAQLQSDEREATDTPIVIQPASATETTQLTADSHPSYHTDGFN
Description: co-immunoprecipitation, as summed up in the discussion.

By UniProt entry, the sequences of proteins in these tests, tags left out. Where a name states a change or a piece, a line headed by the entry shows the natural chain unless it says otherwise. Chains listed by the source or under a name are the forms on record and can include a tag or linker. Residues count along the entry.
UniProt Q8BJU0: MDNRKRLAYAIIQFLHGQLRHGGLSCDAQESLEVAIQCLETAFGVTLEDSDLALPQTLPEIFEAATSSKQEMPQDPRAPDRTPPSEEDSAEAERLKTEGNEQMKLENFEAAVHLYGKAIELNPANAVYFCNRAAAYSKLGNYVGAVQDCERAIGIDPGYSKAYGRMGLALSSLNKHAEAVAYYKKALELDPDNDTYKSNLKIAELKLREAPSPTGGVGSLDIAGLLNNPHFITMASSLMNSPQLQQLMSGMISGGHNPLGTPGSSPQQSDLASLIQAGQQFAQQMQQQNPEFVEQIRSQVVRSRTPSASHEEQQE
wild-type Hspa8 (heat shock 70 kDa protein 8) (P63017, residues 2-646): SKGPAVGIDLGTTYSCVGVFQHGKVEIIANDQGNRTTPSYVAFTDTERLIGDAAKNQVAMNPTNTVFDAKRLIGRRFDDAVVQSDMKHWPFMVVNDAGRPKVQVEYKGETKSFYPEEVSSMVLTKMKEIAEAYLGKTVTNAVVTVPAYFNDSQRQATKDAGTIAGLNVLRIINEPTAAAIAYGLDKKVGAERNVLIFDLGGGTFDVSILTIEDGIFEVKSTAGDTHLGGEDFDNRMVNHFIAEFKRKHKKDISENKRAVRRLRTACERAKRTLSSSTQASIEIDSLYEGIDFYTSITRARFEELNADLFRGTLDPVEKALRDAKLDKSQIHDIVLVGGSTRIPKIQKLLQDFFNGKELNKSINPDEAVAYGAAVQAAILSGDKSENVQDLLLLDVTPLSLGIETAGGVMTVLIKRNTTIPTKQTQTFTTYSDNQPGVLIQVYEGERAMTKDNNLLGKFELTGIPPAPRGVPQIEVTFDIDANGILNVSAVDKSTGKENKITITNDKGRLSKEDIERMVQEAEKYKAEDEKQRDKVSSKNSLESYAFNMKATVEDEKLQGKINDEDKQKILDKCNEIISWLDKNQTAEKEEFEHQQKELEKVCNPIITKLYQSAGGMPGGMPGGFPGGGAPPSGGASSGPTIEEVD
Hspa8^G470R variant (P63017, form named): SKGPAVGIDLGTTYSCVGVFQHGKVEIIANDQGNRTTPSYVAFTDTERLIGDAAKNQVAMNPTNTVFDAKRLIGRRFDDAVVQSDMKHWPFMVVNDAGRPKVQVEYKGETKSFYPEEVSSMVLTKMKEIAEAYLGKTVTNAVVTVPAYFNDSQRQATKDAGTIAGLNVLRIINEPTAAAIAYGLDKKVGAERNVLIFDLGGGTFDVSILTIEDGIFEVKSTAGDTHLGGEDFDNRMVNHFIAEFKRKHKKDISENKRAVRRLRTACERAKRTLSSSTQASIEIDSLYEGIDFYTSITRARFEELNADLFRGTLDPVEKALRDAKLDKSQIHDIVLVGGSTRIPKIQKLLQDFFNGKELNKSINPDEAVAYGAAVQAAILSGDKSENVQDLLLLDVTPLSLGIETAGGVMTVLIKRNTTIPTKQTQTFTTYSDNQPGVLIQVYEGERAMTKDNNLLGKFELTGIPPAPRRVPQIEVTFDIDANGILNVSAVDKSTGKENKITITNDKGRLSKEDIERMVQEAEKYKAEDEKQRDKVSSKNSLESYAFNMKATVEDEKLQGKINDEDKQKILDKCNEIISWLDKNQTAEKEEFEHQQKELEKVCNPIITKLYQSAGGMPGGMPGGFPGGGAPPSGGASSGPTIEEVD

In assay [3] the target is SGTA (mouse) (UniProt Q8BJU0). The assay is described as above.
Assay [4] concerns the target T1, CSPα (mouse). Description: co-immunoprecipitation, PND9 mouse brain lysate, western blot.
Assay [5] has as its target SGTA (mouse) (UniProt Q8BJU0). Described as above.

We go through two substances from US20250241968A1.

These are yes or no findings as the source states them, for the method shown. Binding seen in cells or lysates may run through a third protein. Some entries that bind do so weakly or less than the wild type.

“wild-type Hspa8 (heat shock 70 kDa protein 8) (from UniProt P63017 2-646)”: in the assay with SGTA (mouse) [1], the binding result was “binds”.
“Hspa8^G470R variant (from UniProt P63017 2-646)”: the binding entry in the assay with CSPα (mouse) [2], in the assay with SGTA (mouse) [3], with CSPα (mouse) [4] and with SGTA (mouse) [5] was “binds” each time.
